Results: the supplement of paper PMC10849652
The list shows a part of the results.

Protein sequences, listed by entry. Tags and fused reporters are not part of them. Lines headed by an entry give the natural chain unless they say otherwise; changes in a name come on top.
UniProt P18085: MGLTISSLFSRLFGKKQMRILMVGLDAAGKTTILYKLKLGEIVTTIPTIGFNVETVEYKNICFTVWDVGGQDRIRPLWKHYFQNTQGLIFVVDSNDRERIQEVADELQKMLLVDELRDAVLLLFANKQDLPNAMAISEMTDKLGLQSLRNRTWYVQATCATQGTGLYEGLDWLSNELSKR
UniProt P04114: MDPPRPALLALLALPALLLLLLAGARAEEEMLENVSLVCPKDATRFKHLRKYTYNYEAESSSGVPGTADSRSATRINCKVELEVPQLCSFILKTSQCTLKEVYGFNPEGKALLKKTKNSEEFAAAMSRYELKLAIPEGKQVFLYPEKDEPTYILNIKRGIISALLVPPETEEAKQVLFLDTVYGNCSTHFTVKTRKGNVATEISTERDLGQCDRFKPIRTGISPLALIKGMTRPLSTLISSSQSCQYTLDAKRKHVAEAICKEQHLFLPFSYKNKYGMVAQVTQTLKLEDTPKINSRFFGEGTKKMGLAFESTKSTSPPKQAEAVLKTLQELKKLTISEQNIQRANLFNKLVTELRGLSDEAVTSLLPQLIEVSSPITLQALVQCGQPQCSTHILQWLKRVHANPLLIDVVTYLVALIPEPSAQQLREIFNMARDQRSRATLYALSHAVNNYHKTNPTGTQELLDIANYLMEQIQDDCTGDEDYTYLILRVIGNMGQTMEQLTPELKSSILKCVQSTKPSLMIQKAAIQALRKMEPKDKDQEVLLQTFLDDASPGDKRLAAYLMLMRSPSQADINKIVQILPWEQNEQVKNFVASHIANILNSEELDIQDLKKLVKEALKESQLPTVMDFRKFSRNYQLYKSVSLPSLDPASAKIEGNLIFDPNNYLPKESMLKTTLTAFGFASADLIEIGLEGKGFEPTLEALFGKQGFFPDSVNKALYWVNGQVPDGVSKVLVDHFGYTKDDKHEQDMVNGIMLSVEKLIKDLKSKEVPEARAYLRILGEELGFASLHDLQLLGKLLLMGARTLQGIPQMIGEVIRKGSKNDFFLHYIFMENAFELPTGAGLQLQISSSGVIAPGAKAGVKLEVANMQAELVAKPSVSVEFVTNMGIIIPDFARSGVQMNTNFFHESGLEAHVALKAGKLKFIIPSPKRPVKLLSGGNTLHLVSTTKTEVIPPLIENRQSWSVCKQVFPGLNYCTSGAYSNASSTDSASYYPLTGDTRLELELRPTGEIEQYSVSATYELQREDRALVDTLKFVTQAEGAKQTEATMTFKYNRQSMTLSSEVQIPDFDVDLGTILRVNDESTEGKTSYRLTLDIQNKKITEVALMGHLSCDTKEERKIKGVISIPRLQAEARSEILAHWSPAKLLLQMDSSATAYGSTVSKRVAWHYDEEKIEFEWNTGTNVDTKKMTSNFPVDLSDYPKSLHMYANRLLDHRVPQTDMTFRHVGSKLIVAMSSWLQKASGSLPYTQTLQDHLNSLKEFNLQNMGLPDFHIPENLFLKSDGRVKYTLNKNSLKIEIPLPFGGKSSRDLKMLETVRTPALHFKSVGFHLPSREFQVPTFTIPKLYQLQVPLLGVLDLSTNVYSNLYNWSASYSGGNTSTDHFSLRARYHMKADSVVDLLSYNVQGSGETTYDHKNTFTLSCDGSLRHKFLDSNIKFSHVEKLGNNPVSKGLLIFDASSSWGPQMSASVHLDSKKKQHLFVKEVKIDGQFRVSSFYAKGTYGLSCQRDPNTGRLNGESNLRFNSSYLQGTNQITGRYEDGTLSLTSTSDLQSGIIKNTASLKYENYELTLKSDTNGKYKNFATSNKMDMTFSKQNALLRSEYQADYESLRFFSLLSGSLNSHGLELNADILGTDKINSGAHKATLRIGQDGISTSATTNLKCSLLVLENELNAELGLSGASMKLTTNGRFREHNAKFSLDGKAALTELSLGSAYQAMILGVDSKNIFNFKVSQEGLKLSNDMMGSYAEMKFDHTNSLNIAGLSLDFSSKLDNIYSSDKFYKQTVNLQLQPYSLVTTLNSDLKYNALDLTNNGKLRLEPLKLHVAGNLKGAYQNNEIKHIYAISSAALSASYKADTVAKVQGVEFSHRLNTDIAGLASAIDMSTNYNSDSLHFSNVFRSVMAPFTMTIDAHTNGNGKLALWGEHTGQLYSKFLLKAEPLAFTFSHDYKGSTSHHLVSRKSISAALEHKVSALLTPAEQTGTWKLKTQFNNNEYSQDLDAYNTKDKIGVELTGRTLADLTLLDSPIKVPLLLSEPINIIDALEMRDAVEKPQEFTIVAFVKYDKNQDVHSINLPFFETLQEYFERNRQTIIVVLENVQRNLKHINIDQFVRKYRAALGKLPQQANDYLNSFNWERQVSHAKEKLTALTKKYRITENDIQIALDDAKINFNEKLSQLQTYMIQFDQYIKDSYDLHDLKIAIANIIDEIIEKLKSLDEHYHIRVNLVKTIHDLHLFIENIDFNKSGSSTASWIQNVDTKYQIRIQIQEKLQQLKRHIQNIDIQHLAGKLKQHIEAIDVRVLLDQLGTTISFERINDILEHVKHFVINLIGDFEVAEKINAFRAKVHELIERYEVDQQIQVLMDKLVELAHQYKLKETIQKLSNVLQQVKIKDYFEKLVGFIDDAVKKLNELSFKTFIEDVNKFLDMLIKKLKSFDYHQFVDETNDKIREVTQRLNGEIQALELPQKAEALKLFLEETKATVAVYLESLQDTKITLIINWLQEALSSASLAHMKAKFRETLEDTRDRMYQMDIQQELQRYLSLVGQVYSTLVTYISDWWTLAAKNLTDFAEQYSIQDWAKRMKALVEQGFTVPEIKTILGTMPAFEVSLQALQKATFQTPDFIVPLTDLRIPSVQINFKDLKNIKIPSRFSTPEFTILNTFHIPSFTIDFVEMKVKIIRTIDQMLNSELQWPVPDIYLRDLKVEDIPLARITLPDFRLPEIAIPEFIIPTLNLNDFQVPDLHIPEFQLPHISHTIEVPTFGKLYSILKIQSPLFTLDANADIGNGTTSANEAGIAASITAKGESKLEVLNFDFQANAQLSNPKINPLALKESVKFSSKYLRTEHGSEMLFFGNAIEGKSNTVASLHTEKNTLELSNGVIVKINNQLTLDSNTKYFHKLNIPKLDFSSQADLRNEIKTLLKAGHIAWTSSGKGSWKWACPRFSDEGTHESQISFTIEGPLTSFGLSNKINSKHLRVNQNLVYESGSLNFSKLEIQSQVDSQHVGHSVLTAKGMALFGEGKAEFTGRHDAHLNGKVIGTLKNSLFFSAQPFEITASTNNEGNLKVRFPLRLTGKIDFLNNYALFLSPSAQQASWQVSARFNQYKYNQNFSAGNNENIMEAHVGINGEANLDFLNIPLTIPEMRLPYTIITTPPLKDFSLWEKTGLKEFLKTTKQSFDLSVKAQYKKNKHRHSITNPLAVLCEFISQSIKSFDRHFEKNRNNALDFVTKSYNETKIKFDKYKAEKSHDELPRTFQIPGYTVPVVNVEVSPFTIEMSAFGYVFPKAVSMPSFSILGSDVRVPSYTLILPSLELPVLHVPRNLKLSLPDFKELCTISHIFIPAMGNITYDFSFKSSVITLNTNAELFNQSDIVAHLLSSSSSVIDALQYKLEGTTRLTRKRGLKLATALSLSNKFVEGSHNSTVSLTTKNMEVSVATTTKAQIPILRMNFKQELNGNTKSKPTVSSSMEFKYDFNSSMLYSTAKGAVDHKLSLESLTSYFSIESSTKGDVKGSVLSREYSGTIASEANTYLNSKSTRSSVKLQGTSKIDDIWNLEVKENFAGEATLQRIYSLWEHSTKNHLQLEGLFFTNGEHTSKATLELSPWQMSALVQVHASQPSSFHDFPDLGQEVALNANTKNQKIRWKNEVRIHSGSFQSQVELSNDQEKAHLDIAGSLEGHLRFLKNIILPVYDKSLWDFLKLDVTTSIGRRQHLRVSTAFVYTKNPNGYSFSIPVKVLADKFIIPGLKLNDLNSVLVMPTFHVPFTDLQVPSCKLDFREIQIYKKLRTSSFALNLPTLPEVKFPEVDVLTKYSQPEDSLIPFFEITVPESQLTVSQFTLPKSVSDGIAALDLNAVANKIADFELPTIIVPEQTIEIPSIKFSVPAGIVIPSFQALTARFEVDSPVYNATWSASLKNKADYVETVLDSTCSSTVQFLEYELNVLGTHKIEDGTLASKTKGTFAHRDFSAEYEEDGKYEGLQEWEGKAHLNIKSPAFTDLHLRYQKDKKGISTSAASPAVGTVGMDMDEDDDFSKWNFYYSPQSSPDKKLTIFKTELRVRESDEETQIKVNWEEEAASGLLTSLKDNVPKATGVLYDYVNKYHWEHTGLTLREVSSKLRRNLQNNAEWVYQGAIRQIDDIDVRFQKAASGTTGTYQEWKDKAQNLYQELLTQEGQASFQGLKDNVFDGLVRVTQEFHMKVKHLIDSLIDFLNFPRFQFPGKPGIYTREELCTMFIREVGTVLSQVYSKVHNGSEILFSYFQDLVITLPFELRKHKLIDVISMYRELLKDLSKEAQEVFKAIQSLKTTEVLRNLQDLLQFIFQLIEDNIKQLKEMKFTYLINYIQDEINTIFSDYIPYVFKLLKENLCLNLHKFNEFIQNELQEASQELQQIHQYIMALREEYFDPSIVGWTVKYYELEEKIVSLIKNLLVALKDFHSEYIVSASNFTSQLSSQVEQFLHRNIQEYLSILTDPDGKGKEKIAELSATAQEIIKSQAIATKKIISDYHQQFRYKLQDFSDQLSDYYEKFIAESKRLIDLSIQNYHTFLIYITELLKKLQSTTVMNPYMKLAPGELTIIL
UniProt O14727: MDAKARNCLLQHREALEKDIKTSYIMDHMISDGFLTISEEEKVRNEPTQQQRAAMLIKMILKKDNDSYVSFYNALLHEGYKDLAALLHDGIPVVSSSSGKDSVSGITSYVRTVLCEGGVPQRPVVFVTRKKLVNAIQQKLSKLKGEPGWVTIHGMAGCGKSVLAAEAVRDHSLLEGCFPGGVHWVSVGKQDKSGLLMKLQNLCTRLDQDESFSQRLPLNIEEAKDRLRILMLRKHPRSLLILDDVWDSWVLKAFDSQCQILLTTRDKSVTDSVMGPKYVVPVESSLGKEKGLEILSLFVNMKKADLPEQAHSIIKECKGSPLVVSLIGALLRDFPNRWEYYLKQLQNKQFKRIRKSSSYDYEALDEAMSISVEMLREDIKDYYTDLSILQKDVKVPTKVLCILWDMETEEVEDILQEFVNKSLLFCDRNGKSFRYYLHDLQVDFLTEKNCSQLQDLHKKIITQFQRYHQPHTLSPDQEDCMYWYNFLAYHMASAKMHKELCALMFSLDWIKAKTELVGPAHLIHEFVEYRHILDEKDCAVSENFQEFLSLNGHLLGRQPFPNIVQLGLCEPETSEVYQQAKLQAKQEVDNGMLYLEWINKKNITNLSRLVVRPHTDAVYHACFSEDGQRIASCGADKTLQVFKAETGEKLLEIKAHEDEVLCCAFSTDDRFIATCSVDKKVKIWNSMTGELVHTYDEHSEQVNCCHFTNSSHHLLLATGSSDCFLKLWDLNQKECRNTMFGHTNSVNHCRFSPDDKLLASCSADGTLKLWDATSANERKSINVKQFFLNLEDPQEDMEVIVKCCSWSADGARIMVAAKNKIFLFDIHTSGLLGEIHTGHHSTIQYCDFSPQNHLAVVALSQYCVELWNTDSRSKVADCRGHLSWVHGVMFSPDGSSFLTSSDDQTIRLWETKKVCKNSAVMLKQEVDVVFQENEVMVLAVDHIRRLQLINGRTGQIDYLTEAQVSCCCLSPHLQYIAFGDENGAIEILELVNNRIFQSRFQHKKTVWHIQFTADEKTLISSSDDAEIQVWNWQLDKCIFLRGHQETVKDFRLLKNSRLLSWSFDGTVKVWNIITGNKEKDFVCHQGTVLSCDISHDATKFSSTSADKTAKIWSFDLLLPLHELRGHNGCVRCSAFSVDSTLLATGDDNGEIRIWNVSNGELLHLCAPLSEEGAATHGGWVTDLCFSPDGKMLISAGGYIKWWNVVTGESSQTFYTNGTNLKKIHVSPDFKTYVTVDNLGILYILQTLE
UniProt O75915: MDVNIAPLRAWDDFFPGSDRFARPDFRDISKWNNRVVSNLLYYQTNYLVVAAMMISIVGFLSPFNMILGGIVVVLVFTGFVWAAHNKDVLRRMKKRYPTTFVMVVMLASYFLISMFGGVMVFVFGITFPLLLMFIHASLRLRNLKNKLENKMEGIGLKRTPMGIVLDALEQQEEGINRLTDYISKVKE
UniProt P78540: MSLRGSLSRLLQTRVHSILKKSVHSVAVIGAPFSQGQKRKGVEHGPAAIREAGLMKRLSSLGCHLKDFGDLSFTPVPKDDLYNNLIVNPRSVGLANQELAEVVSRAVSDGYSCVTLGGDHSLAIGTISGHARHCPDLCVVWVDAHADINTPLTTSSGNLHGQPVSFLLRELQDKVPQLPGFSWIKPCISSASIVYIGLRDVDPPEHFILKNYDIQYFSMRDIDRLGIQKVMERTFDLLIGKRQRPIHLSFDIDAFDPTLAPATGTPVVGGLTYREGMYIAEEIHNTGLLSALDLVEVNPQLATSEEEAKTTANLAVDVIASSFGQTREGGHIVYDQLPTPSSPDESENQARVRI

How the values were obtained:
Test in all cases: log2 fold change, soluble protein after heating vs DMSO (PISA); higher = thermal stabilisation; K562 lysate, 10 uM; active = over 0.2 and 3.5 SD of the protein, either way, in both replicates (recomputed)
erlotinib = compound: C#Cc1cccc(Nc2ncnc3cc(OCCOC)c(OCCOC)cc23)c1 [erlotinib]
Summary of the method: (§1)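 Dounce homogenisation of K562 pellets in PBS pH 7.4 with 1 mM MgCl2 produced a crude extract, used at 1 mg/mL protein. Exposure to 10 μM compound lasted 30 min, and aliquots were then heated for 3 min across 48°C-58°C, pooled and brought to 0.5% NP-40 at 4°C. The supernatant after 21,000xg for 90 min was quantified by TMTpro 16plex LC-MS/MS with channel sums equalised. Duplicate values are given as log-two fold change in thermal stability relative to solvent controls.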

[1] = compound: C/C(=N\NC(=O)C1=CC(=CC=C1)S(=O)(=O)N2CCOCC2)/C3=C(C=CC(=C3)Cl)O
Summary of the method: as §1

[2] = compound: C1=CC(=CC=C1C2=NC3=C(N2)C=C(C=C3)C(=O)N)OC4=CC=C(C=C4)Cl
Summary of the method: as §1

[3] = compound: C1=CC2=C(C=CC(=C2)/C=C\3/C(=O)NC(=NCC4=CC=CS4)S3)N=C1
Summary of the method: as §1

[4] = compound: C1=CC2=NC=CN=C2C=C1/C=C/3\C(=O)NC(=O)S3
Summary of the method: as §1

[5] = compound: C1=CC=C(C=C1)C2=NC(=C(N2)C3=CC=NC=C3)C4=CC(=C(C=C4)Cl)O
Summary of the method: as §1

[6] = compound: C1=CC=C2C(=C1)C3=NNC4=CC=CC(=C43)C2=O
Summary of the method: as §1

[7] = compound: C1CCN(C1)C(=O)NC2=CC=CC(=C2)NC3=NC=C(C(=N3)NCCC4=CN=CN4)Br
Summary of the method: as §1

[8] = compound: C1CN(CCC1(CC2=CC=C(C=C2)Cl)N)C3=NC=NC4=C3C=CN4
Summary of the method: as §1

IRAK-1-4 Inhibitor I = compound: C1COCCN1CCN2C3=CC=CC=C3N=C2NC(=O)C4=CC(=CC=C4)[N+](=O)[O-] [IRAK-1-4 Inhibitor I]
Summary of the method: as §1

ibrutinib = compound: C=CC(=O)N1CCC[C@@H](n2nc(-c3ccc(Oc4ccccc4)cc3)c3c(N)ncnc32)C1 [ibrutinib]
Summary of the method: as §1

[9] = compound: CC(=O)c1cnc2ccc(-c3cc(Cl)c(O)c(Cl)c3)nc2c1N[C@H]1CC[C@H](CN(C)C)CC1
Summary of the method: as §1

ralimetinib = compound: CC(C)(C)Cn1c(N)nc2ccc(-c3[nH]c(C(C)(C)C)nc3-c3ccc(F)cc3)nc21 [ralimetinib]
Summary of the method: as §1

[10] = compound: CC(C)(O)CC(=O)NCCn1ccc2ncnc(Nc3ccc(Oc4cccc(C(F)(F)F)c4)c(Cl)c3)c21
Summary of the method: as §1

[11] = compound: CC(C)C1=C2N=C(C=C(N2N=C1)NCC3=CC=CC=C3)NCCCCCCN
Summary of the method: as §1

[12] = compound: CC1=C(C(CC(=O)N1)C2=CC=C(C=C2)C(F)(F)F)C(=O)NC3=C(C=C4C(=C3)C=NN4)F
Summary of the method: as §1

[13] = compound: CC1=C(C2=C(C=C1)C(=O)C3=CC=CC=C3N2CCCN)C
Summary of the method: as §1

[14] = compound: CC1=C(C=C(C=C1)NC(=O)C2=CC(=CC=C2)C(C)(C)C#N)NC3=CC4=C(C=C3)N=CN(C4=O)C
Summary of the method: as §1

[15] = compound: CC1=C(C=C(C=C1)NC(=O)C2=CC(=CC=C2)N(C)C)NC(=O)C3=CC=C(C=C3)O
Summary of the method: as §1

[16] = compound: CC1=CC=C(C=C1)SC2=C3C=C(SC3=CN=C2)C(=O)N
Summary of the method: as §1

Measured: log2 fold change

ARF4 (UniProt P18085)
inactive: erlotinib -0.052 | [1] -0.018 | [2] 0.004 | [3] -0.009 | [4] -0.001 | [5] -0.039 | [6] 0.025 | [7] -0.074 | [8] 0.006 | IRAK-1-4 Inhibitor I -0.017 | ibrutinib -0.005 | [9] -0.035 | ralimetinib 0.042 | [10] -0.014 | [11] -0.027 | [12] -0.01 | [13] -0.005 | [14] 0.037 | [15] -0.046 | [16] -0.034

APOB (UniProt P04114)
inactive: erlotinib -0.028 | [1] -0.001 | [2] -0.032 | [3] -0.029 | [4] -0.021 | [5] 0 | [6] -0.055 | [7] -0.067 | [8] 0.015 | IRAK-1-4 Inhibitor I 0.097 | ibrutinib -0.025 | [9] -0.016 | ralimetinib -0.052 | [10] -0.195 | [11] 0.011 | [12] -0.02 | [13] -0.089 | [14] 0.063 | [15] -0.005 | [16] -0.036

ARIH2 (UniProt O95376)
inactive: erlotinib -0.004 | [1] -0.005 | [2] 0.04 | [3] -0.029 | [4] 0.007 | [5] -0.02 | [6] -0.015 | [7] 0.009 | [8] 0.04 | IRAK-1-4 Inhibitor I -0.029 | ibrutinib -0.003 | [9] 0.017 | ralimetinib 0.001 | [10] -0.028 | [11] -0.029 | [12] 0.016 | [13] 0.002 | [14] 0.081 | [15] -0.001 | [16] -0.017

ARMC6 (UniProt Q6NXE6)
inactive: erlotinib 0.012 | [1] -0.026 | [2] -0.093 | [3] 0.022 | [4] 0.04 | [5] 0.006 | [6] -0.027 | [7] 0.021 | [8] -0.031 | IRAK-1-4 Inhibitor I -0.005 | ibrutinib 0.023 | [9] 0.005 | ralimetinib 0.007 | [10] -0.005 | [11] 0.002 | [12] -0.013 | [13] 0.001 | [14] -0.011 | [15] 0.016 | [16] 0

APAF1 (UniProt O14727)
inactive: erlotinib 0.005 | [1] 0.084 | [2] -0.054 | [3] 0.019 | [4] -0.016 | [5] -0.029 | [6] -0.003 | [7] 0.022 | [8] 0.015 | IRAK-1-4 Inhibitor I -0.021 | ibrutinib 0.027 | [9] 0.063 | ralimetinib 0.031 | [10] -0.04 | [11] 0.009 | [12] 0.008 | [13] -0.005 | [14] 0.003 | [15] 0.002 | [16] 0.022

ARHGDIB (UniProt P52566)
inactive: erlotinib -0.032 | [1] 0.014 | [2] 0.007 | [3] -0.007 | [4] -0.022 | [5] 0.011 | [6] -0.014 | [7] 0.03 | [8] -0.018 | IRAK-1-4 Inhibitor I 0.013 | ibrutinib -0.023 | [9] -0.025 | ralimetinib -0.023 | [10] -0.031 | [11] -0.013 | [12] -0.048 | [13] 0.025 | [14] 0.011 | [15] 0 | [16] -0.017

Fetched one by one from above, 2 records:
APOB (UniProt P04114)
inactive: erlotinib -0.028 | [1] -0.001 | [2] -0.032 | [3] -0.029 | [4] -0.021 | [5] 0 | [6] -0.055 | [7] -0.067 | [8] 0.015 | IRAK-1-4 Inhibitor I 0.097 | ibrutinib -0.025 | [9] -0.016 | ralimetinib -0.052 | [10] -0.195 | [11] 0.011 | [12] -0.02 | [13] -0.089 | [14] 0.063 | [15] -0.005 | [16] -0.036

APAF1 (UniProt O14727)
inactive: erlotinib 0.005 | [1] 0.084 | [2] -0.054 | [3] 0.019 | [4] -0.016 | [5] -0.029 | [6] -0.003 | [7] 0.022 | [8] 0.015 | IRAK-1-4 Inhibitor I -0.021 | ibrutinib 0.027 | [9] 0.063 | ralimetinib 0.031 | [10] -0.04 | [11] 0.009 | [12] 0.008 | [13] -0.005 | [14] 0.003 | [15] 0.002 | [16] 0.022

Later entries

ARHGAP4 isoform 2 (UniProt P98171)
inactive: erlotinib 0.034 | [1] 0.103 | [2] -0.014 | [3] 0.009 | [4] 0.051 | [5] -0.006 | [6] -0.023 | [7] -0.002 | [8] 0 | IRAK-1-4 Inhibitor I 0.012 | ibrutinib 0.027 | [9] 0.016 | ralimetinib 0.006 | [10] -0.005 | [11] 0.014 | [12] 0.031 | [13] 0.003 | [14] 0 | [15] 0.067 | [16] 0.005

ARL6IP5 (UniProt O75915)
inactive: erlotinib -0.06 | [1] 0.013 | [2] -0.102 | [3] -0.043 | [4] 0.01 | [5] 0.013 | [6] 0.038 | [7] 0.019 | [8] -0.042 | IRAK-1-4 Inhibitor I -0.024 | ibrutinib 0.032 | [9] 0.014 | ralimetinib 0.036 | [10] 0.011 | [11] -0.003 | [12] 0 | [13] 0.034 | [14] -0.106 | [15] -0.01 | [16] -0.004

ARHGEF11 isoform 2 (UniProt O15085)
inactive: erlotinib 0.093 | [1] -0.1 | [2] 0.024 | [3] 0.159 | [4] 0.009 | [5] 0.024 | [6] 0.017 | [7] 0.058 | [8] -0.128 | IRAK-1-4 Inhibitor I -0.019 | ibrutinib -0.027 | [9] 0.017 | ralimetinib -0.063 | [10] 0.152 | [11] -0.083 | [12] -0.061 | [13] -0.077 | [14] 0.024 | [15] 0.031 | [16] -0.024

ARG2 (UniProt P78540)
inactive: erlotinib -0.006 | [1] -0.011 | [2] 0.034 | [3] 0.019 | [4] -0.011 | [5] 0.043 | [6] -0.038 | [7] -0.03 | [8] 0.023 | IRAK-1-4 Inhibitor I 0.007 | ibrutinib 0.03 | [9] 0.009 | ralimetinib -0.002 | [10] -0.072 | [11] -0.018 | [12] -0.003 | [13] -0.052 | [14] 0.053 | [15] 0.012 | [16] -0.017

ARHGAP12 (UniProt Q8IWW6)
inactive: erlotinib 0.059 | [1] -0.043 | [2] 0.142 | [3] -0.028 | [4] -0.027 | [5] 0.007 | [6] -0.13 | [7] -0.017 | [8] 0.127 | IRAK-1-4 Inhibitor I 0.046 | ibrutinib 0.021 | [9] -0.05 | ralimetinib -0.14 | [10] -0.18 | [11] -0.009 | [12] 0.174 | [13] -0.031 | [14] 0.061 | [15] -0.039 | [16] -0.058

ARPC4 isoform 3 (UniProt P59998)
inactive: erlotinib -0.025 | [1] -0.354 | [2] -0.021 | [3] 0.008 | [4] -0.013 | [5] -0.023 | [6] 0.052 | [7] -0.002 | [8] 0.012 | IRAK-1-4 Inhibitor I -0.002 | ibrutinib 0.005 | [9] 0.004 | ralimetinib 0.021 | [10] 0.007 | [11] -0.022 | [12] -0.056 | [13] 0.004 | [14] 0.001 | [15] -0.022 | [16] 0.018

ARL1 (UniProt P40616)
inactive: erlotinib 0.006 | [1] -0.212 | [2] 0.037 | [3] -0.022 | [4] -0.03 | [5] -0.013 | [6] -0.018 | [7] -0.046 | [8] 0.025 | IRAK-1-4 Inhibitor I 0.053 | ibrutinib -0.029 | [9] -0.005 | ralimetinib 0.027 | [10] -0.001 | [11] -0.017 | [12] 0.098 | [13] -0.026 | [14] 0.134 | [15] -0.021 | [16] -0.027

APTX (UniProt Q7Z2E3)
inactive: erlotinib 0.026 | [1] 0.143 | [2] 0.003 | [3] 0.065 | [4] -0.014 | [5] 0.053 | [6] -0.177 | [7] 0.052 | [8] 0.102 | IRAK-1-4 Inhibitor I 0.035 | ibrutinib -0.033 | [9] 0.1 | ralimetinib -0.006 | [10] -0.068 | [11] -0.042 | [12] -0.015 | [13] -0.074 | [14] 0.011 | [15] 0.063 | [16] 0.088

ARPC1A (UniProt Q92747)
inactive: erlotinib -0.028 | [1] -0.075 | [2] 0.033 | [3] 0.03 | [4] 0.006 | [5] -0.015 | [6] 0.023 | [7] -0.026 | [8] -0.009 | IRAK-1-4 Inhibitor I 0.037 | ibrutinib 0.005 | [9] 0.003 | ralimetinib -0.002 | [10] -0.056 | [11] -0.02 | [12] 0.045 | [13] 0.004 | [14] 0.002 | [15] -0.033 | [16] -0.001

ARFGAP1 (UniProt Q8N6T3)
inactive: erlotinib -0.028 | [1] -0.209 | [2] -0.025 | [3] 0.005 | [4] 0.029 | [5] -0.039 | [6] -0.025 | [7] -0.018 | [8] 0.002 | IRAK-1-4 Inhibitor I 0.038 | ibrutinib -0.118 | [9] 0.06 | ralimetinib -0.018 | [10] -0.203 | [11] 0.019 | [12] 0.408 | [13] 0.136 | [14] -0.062 | [15] 0.061 | [16] -0.045
